Binding data for 1 substance are collected here from PMC9200640.

Amino acid sequences for entries named in this document (tags omitted). Residues count along the entry.
UniProt Q9H2K0, residues 32-278: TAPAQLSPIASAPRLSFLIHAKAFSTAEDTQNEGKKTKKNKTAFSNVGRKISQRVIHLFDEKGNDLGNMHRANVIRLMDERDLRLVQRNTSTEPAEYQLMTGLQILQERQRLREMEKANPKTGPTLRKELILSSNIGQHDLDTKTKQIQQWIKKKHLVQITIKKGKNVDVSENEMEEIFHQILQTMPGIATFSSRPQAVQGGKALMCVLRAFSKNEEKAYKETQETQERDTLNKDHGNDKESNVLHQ

In this experiment the target is RBFA (human mitochondrial ribosome-binding factor A) (human (endogenous in HEK293T)) (UniProt Q8N0V3). Nature of the experiment: cryo-EM structure; pre-SSU-4 (2.9 Å), native SSU assembly intermediate from mitochondria of MRM3-knockout HEK293T cells, sucrose gradient fractions.

Results are given in words; binding and its absence hold for the method and conditions named. Some results given as binding are weak or reduced against the parent protein; the word gives no strength.

Consider “mtIF3 (mitochondrial initiation factor 3) (from UniProt Q9H2K0 32-278)”, for which the binding entry is reported as “binds”.
